Assay results as given in publication PMC5116814, “Potent, Reversible, and Specific Chemical Inhibitors of Eukaryotic Ribosome Biogenesis” (Cell, 2016).

Chains of the proteins cited; added tags and fusions are not shown.
UniProt O94248: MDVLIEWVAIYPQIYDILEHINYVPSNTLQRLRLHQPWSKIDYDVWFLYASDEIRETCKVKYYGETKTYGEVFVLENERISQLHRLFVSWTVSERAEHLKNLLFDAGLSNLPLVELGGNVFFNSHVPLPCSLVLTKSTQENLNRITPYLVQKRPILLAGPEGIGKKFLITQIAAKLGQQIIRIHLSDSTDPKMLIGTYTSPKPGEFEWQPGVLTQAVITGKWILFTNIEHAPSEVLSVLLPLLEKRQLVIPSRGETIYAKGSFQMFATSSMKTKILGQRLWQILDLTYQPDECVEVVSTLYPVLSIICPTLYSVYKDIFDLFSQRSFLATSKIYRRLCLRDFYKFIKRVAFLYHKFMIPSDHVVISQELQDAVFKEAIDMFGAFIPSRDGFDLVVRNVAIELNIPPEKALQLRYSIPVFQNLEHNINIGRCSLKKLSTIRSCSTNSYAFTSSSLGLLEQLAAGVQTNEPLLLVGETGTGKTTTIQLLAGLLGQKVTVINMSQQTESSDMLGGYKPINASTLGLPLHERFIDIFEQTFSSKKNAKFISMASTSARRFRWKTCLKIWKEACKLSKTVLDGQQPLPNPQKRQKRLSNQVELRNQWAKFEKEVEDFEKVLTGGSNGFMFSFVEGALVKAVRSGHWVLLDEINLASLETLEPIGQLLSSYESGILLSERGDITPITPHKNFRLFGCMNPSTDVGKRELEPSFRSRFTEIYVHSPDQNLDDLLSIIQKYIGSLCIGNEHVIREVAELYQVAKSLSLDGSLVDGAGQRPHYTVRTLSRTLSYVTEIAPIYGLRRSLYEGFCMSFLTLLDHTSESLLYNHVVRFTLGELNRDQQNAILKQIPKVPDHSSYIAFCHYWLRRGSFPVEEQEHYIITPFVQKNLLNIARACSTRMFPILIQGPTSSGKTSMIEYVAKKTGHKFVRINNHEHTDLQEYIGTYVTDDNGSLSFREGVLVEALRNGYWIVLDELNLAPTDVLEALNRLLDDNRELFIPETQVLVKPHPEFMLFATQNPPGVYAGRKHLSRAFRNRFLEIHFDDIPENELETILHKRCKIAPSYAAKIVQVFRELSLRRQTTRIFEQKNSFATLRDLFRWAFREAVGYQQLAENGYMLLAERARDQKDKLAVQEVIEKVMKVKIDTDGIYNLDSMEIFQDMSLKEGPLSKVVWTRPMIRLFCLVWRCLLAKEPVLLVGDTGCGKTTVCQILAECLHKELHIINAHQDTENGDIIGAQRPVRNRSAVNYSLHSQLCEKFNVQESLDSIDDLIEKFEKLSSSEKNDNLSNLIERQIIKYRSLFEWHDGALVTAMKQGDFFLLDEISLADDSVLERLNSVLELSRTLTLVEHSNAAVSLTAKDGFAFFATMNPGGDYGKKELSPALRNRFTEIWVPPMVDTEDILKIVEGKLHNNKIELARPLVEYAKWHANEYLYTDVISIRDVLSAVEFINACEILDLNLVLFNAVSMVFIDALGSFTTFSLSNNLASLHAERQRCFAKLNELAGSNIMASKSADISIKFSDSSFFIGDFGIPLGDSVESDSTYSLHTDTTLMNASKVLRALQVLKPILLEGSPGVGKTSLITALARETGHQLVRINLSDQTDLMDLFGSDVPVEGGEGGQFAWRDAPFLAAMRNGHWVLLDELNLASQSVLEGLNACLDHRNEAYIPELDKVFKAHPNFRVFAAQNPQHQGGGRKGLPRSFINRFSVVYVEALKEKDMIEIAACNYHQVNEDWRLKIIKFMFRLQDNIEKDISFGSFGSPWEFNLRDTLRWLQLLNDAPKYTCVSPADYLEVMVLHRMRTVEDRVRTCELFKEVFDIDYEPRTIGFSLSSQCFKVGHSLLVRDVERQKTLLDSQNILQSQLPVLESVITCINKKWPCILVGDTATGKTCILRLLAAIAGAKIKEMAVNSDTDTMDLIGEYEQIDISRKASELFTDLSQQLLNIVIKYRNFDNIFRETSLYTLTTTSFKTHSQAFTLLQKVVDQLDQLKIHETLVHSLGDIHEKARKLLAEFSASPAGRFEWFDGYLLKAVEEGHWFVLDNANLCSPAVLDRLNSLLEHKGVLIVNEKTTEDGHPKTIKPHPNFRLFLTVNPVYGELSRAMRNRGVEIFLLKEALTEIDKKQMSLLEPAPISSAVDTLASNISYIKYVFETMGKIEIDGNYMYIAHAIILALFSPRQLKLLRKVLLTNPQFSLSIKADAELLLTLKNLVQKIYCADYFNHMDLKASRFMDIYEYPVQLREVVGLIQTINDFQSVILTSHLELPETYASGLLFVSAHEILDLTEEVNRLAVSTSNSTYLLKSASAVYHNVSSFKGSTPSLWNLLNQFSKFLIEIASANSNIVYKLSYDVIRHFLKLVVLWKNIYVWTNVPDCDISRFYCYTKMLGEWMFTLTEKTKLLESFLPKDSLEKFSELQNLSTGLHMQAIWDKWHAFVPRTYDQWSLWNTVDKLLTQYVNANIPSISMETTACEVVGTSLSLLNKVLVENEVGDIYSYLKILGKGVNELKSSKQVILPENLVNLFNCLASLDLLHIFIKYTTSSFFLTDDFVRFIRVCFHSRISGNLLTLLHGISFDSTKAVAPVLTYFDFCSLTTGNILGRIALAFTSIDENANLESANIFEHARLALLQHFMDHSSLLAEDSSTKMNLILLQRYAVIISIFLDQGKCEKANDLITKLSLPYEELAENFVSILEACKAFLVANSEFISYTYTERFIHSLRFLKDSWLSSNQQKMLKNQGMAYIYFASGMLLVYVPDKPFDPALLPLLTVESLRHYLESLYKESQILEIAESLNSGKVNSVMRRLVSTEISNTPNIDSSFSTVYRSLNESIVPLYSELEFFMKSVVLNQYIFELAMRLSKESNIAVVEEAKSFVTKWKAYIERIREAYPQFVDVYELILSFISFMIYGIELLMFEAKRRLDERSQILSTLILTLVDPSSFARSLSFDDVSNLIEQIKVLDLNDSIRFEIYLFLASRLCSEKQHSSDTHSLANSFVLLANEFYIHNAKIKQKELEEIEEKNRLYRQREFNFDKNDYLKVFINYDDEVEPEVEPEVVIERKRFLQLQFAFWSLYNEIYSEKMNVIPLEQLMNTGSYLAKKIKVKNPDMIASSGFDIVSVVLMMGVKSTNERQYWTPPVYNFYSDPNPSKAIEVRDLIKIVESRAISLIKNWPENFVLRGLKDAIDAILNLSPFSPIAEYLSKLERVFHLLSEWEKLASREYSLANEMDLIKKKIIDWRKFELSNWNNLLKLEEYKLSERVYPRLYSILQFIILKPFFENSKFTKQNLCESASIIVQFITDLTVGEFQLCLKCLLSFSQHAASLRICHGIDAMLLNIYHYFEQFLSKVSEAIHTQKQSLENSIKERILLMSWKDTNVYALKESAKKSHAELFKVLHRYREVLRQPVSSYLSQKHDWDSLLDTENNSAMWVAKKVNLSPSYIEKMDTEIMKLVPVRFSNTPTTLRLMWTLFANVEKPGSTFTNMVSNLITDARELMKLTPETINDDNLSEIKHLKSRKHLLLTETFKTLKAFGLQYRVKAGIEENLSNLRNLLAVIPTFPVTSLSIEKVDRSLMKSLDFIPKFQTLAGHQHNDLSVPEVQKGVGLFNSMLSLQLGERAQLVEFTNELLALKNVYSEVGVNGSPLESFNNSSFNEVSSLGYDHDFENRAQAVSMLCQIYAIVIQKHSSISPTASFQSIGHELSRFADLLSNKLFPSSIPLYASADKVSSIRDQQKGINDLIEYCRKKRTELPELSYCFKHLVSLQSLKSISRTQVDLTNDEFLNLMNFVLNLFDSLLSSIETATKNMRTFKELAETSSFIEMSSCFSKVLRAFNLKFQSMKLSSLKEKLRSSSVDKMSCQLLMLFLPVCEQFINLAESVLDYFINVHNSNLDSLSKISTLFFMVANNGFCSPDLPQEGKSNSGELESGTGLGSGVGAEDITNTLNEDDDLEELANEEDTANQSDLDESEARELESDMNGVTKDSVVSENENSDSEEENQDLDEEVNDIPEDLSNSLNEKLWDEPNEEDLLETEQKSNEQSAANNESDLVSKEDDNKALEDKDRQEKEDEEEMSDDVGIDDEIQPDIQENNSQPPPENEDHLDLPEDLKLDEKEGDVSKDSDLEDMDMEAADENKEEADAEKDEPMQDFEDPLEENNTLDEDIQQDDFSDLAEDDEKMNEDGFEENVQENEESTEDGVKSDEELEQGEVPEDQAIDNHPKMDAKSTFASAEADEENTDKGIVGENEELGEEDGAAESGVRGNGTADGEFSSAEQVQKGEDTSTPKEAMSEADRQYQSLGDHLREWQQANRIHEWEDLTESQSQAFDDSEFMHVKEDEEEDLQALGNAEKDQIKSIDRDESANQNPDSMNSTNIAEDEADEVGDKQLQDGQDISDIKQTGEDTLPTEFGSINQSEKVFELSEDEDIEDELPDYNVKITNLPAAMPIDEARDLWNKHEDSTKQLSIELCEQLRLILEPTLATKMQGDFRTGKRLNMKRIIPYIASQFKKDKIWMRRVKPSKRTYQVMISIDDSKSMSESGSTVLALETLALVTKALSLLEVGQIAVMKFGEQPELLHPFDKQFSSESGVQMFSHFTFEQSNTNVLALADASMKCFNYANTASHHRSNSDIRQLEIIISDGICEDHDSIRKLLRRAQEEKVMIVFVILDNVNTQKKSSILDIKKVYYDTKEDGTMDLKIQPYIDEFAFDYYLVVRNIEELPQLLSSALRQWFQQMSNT

Molecular target: T1, Rix1-5FLAG (S. pombe) (UniProt P87243)
T1 sequence: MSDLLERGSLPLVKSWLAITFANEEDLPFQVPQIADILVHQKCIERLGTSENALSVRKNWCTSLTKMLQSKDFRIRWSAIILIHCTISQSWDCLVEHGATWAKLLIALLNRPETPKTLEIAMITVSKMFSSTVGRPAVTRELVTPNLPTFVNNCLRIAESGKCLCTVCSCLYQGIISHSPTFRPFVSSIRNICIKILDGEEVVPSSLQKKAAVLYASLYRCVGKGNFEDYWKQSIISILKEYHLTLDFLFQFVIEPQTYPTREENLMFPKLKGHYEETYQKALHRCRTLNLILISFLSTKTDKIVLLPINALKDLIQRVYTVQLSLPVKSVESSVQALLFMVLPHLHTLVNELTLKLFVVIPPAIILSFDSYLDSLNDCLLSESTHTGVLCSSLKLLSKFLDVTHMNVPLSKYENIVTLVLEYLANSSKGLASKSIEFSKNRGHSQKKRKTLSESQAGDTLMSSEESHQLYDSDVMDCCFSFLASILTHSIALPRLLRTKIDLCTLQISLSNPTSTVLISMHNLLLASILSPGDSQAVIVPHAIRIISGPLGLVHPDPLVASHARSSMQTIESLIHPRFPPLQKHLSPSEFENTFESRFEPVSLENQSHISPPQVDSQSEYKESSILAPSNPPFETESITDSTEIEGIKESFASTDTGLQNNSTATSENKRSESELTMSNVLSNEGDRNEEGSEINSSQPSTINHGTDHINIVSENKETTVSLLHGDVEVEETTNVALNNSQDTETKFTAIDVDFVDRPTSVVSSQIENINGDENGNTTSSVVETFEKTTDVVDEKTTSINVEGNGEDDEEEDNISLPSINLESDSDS
Assay: affinity purification with mass spectrometry; Rix1-5FLAG or Nsa1-5FLAG immunoprecipitated with anti-FLAG antibody from S. pombe whole cell extracts (with or without 1 uM Rbin-1, 30 min, 29°C in Figure S7B); SDS-PAGE with Coomassie or ORIOLE staining; bands identified by mass spectrometry

Mdn1 (Midasin), S. pombe (from UniProt O94248 1-4717)
binding: binds

Results are given in words; binding and its absence hold for the method and conditions named. Binding seen in cells or lysates may run through a third protein. Here binding means that the protein was enriched with, or labelled near, the bait; the list need not be complete. Where a sequence is shown, tags or fusion partners need not be part of it.
